From doi:10.1101/2024.11.10.622873 (bioRxiv, 2024)
No constants are given. Whether binding was seen depends on the method and setting. A result given as binding can be weak or reduced; the word gives no strength.

Each substance was assayed against C-terminal domain of Clostridium perfringens enterotoxin, in solution (Clostridium perfringens) (UniProt P01558) (assay: BLI).

Row | Substance | binding
1 | human claudin-6 (from UniProt P56747) | binds
2 | human claudin-19 (from UniProt Q8N6F1) | binds
3 | human claudin-17 (from UniProt P56750) | binds
4 | human claudin-9 (from UniProt O95484) | binds
